Assay results published in PubChem BioAssay AID194 (DTP/NCI, 2004).
The list is a part of this screen's results and no random one: it is rich in T/C values a quarter to a half above the control, in often repeated tests (any T/C) and in doses without a T/C. Other doses and runs of a compound stand elsewhere. T/C is the treated group as % of the vehicle group. Schedule codes are those of the source, taken here to give the interval after Q, in days (D) or hours (H), and the number of doses after X. Some entries hold several experiments; the results are listed from low to high. Some T/C values are followed by the survivors on the day toxicity was checked, most often the fifth; where none is given, no animal had died by that day. Some entries give survivors of the animals treated and no T/C: the source holds a T/C of zero for them, seemingly a mark for toxic or unscored doses. Some doses without a T/C left all or most animals alive at the check, yet need not have been tolerated: the source hardly ever lists a survival T/C far under the control, and the zero likely stands for such cases as well. Survivors were counted at the toxicity check, usually on the fifth day, unless a day is given; later deaths do not show. For survival time, the PubChem record calls one and a half times the control and up active, and a quarter to a half above the control has no call in these data; cut-offs in other NCI protocols can differ. Counts like (3×) say how often a value occurs here.

System: BDF1 mice, B16 melanoma s.c., survival/tumor T/C
Experiment: NCI In Vivo Anticancer Drug Screen. Data for tumor model B16 Melanoma (subcutaneous) in B6D2F1 (BDF1) mice
Procedure: The antitumor activity of compounds was measured in mice bearing transplantable tumors. Survival or tumor size were measured and the results are expressed as the measurement made in the treated group (T) divided by the measurement made in the vehicle treated control group (C). The tumor model used in this assay is B16 Melanoma (subcutaneous) in B6D2F1 (BDF1) mice

[1] = T/C endpoint: median survival time, dose: 8.0 mg/kg/injection, schedule: Q01DX009 (ip), vehicle: saline, higher T/C = longer survival
[2] = T/C endpoint: median survival time, dose: 25.0 mg/kg/injection, schedule: Q01DX001 (ip), vehicle: Klucel (hydroxypropylcellulose) (HPC), higher T/C = longer survival
[3] = T/C endpoint: median survival time, dose: 32.0 mg/kg/injection, schedule: Q01DX009 (ip), vehicle: Klucel (hydroxypropylcellulose) (HPC), higher T/C = longer survival
[4] = T/C endpoint: median survival time, dose: 50.0 mg/kg/injection, schedule: Q01DX001 (ip), vehicle: Klucel (hydroxypropylcellulose) (HPC), higher T/C = longer survival
[5] = T/C endpoint: median survival time, dose: 100.0 mg/kg/injection, schedule: Q01DX001 (ip), vehicle: Klucel (hydroxypropylcellulose) (HPC), higher T/C = longer survival
[6] = T/C endpoint: median survival time, dose: 4.0 mg/kg/injection, schedule: Q01DX009 (ip), vehicle: saline, higher T/C = longer survival
[7] = T/C endpoint: median survival time, dose: 2.0 mg/kg/injection, schedule: Q01DX009 (ip), vehicle: saline, higher T/C = longer survival

O=NN(CCCl)C(=O)NC1CCCCC1
T/C (T/C endpoint: median survival time, dose: 4.0 mg/kg/injection, schedule: Q01DX009 (ip), vehicle: Klucel (hydroxypropylcellulose) (HPC), higher T/C = longer survival): 100, 108, 110 (2×), 114, 119, 135, 167 % of control
T/C (T/C endpoint: median survival time, dose: 8.0 mg/kg/injection, schedule: Q01DX009 (ip), vehicle: Klucel (hydroxypropylcellulose) (HPC), higher T/C = longer survival): 101, 113, 123, 151, 152, 156 (2×), 185 % of control
T/C [1]: 136 % of control
T/C (T/C endpoint: median survival time, dose: 12.5 mg/kg/injection, schedule: Q01DX001 (ip), vehicle: Klucel (hydroxypropylcellulose) (HPC), higher T/C = longer survival): 92, 98, 111, 114, 167 % of control
T/C (T/C endpoint: median survival time, dose: 16.0 mg/kg/injection, schedule: Q01DX009 (ip), vehicle: Klucel (hydroxypropylcellulose) (HPC), higher T/C = longer survival): 86, 109, 112, 128, 155, 174, 179, 230 % of control
survivor count (T/C endpoint: median survival time, dose: 24.0 mg/kg/injection, schedule: Q01DX007 (ip), vehicle: Klucel (hydroxypropylcellulose) (HPC), higher T/C = longer survival): 2 of 10 on day 55
T/C [2]: 101, 104, 118, 128, 136, 139, 153 % of control
survivor count [2]: 5 of 6 and 6 of 6
T/C [3]: 86, 90, 96, 98, 110 % of control
survivor count [3]: 10 of 10 and 6 of 6
survivor count (T/C endpoint: median survival time, dose: 40.0 mg/kg/injection, schedule: Q01DX007 (ip), vehicle: Klucel (hydroxypropylcellulose) (HPC), higher T/C = longer survival): 1 of 10 on day 55
T/C [4]: 95, 114 (2×), 119, 154, 155, 180, 230 % of control
survivor count [4]: 6 of 6
survivor count (T/C endpoint: median survival time, dose: 64.0 mg/kg/injection, schedule: Q01DX009 (ip), vehicle: Klucel (hydroxypropylcellulose) (HPC), higher T/C = longer survival): 8 of 10
T/C [5]: 102 and 116 % of control (2×)
survivor count [5]: 5 of 6 and 6 of 6
T/C (T/C endpoint: median tumor weight (est.), dose: 25.0 mg/kg/injection, schedule: Q01DX001 (ip), vehicle: Klucel (hydroxypropylcellulose) (HPC), evaluated on day 14, higher T/C = larger tumour): 370 % of control
T/C (T/C endpoint: median tumor weight (est.), dose: 25.0 mg/kg/injection, schedule: Q01DX001 (ip), vehicle: Klucel (hydroxypropylcellulose) (HPC), evaluated on day 15, higher T/C = larger tumour): 7 and 131 % of control
T/C (T/C endpoint: median tumor weight (est.), dose: 25.0 mg/kg/injection, schedule: Q01DX001 (ip), vehicle: Klucel (hydroxypropylcellulose) (HPC), evaluated on day 18, higher T/C = larger tumour): 41 % of control [5 of 6 alive]
T/C (T/C endpoint: median tumor weight (est.), dose: 50.0 mg/kg/injection, schedule: Q01DX001 (ip), vehicle: Klucel (hydroxypropylcellulose) (HPC), evaluated on day 14, higher T/C = larger tumour): 145 % of control
T/C (T/C endpoint: median tumor weight (est.), dose: 50.0 mg/kg/injection, schedule: Q01DX001 (ip), vehicle: Klucel (hydroxypropylcellulose) (HPC), evaluated on day 15, higher T/C = larger tumour): 142 % of control
T/C (T/C endpoint: median tumor weight (est.), dose: 100.0 mg/kg/injection, schedule: Q01DX001 (ip), vehicle: Klucel (hydroxypropylcellulose) (HPC), evaluated on day 15, higher T/C = larger tumour): 131 % of control

CC[CH2][Sn]([CH2]CC)([CH2]CC)[O][Sn]([CH2]CC)([CH2]CC)[CH2]CC
survivor count [6]: 5 of 10

CC1(C)N=C(N)N=C(N)N1c1ccc(CNC(=O)Nc2cccc(S(=O)(=O)F)c2)cc1
T/C (T/C endpoint: median survival time, dose: 150.0 mg/kg/injection, schedule: Q04DX003 (ip), vehicle: saline, higher T/C = longer survival): 125 % of control

COc1cccc2c1C(=O)c1c(O)c3c(c(O)c1C2=O)C[C@@](O)(C(=O)CO)C[C@@H]3OC1CC(N)C(O)C(C)O1 (some centres undefined)
T/C (T/C endpoint: median survival time, dose: 0.25 mg/kg/injection, schedule: Q01DX009 (ip), vehicle: saline, higher T/C = longer survival): 98 (2×), 103, 112, 121 % of control [9 of 10 alive]
T/C (T/C endpoint: median survival time, dose: 0.5 mg/kg/injection, schedule: Q01DX009 (ip), vehicle: saline, higher T/C = longer survival): 104, 116 (2×), 117, 129 % of control
survivor count (T/C endpoint: median survival time, dose: 1.0 mg/kg/injection, schedule: Q01DX009 (ip), vehicle: other, higher T/C = longer survival): 10 of 10
T/C (T/C endpoint: median survival time, dose: 1.0 mg/kg/injection, schedule: Q01DX009 (ip), vehicle: saline, higher T/C = longer survival): 104, 110, 111, 125, 143 % of control
survivor count (T/C endpoint: median survival time, dose: 2.0 mg/kg/injection, schedule: Q01DX009 (ip), vehicle: other, higher T/C = longer survival): 10 of 10
T/C [7]: 117 % of control
survivor count [7]: 9 of 10 and 10 of 10
survivor count (T/C endpoint: median survival time, dose: 2.5 mg/kg/injection, schedule: Q01DX008 (ip), vehicle: saline, higher T/C = longer survival): 5 of 10
survivor count [6]: 10 of 10
survivor count [1]: 3 of 10
